These results are taken from PMC10858845.

Sequences of proteins named here, by UniProt entry; tags and fusion partners are left off.
UniProt P46937: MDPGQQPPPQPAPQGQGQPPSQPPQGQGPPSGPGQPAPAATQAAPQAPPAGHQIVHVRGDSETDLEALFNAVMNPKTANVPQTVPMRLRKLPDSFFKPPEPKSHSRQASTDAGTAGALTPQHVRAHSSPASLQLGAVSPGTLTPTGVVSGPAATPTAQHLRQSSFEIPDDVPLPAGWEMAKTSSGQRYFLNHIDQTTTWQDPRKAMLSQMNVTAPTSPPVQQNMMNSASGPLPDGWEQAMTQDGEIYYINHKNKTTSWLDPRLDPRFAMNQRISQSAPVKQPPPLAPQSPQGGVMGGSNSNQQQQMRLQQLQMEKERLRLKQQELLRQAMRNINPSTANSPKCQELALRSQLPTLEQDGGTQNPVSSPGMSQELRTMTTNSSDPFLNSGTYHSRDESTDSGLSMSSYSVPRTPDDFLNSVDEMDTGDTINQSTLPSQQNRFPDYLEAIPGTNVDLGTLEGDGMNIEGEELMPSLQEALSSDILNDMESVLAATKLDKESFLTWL
UniProt Q9GZV5: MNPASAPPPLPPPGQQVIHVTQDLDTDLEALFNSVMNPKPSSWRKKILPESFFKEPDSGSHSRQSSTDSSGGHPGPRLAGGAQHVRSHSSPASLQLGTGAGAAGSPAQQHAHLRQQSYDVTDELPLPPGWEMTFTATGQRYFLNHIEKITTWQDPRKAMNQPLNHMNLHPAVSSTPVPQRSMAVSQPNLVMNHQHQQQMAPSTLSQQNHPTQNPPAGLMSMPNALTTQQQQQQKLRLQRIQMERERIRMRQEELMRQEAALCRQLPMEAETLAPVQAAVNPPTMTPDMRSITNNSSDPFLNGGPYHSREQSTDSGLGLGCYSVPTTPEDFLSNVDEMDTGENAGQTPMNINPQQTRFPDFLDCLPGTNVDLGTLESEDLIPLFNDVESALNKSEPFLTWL
UniProt Q9Y2J4: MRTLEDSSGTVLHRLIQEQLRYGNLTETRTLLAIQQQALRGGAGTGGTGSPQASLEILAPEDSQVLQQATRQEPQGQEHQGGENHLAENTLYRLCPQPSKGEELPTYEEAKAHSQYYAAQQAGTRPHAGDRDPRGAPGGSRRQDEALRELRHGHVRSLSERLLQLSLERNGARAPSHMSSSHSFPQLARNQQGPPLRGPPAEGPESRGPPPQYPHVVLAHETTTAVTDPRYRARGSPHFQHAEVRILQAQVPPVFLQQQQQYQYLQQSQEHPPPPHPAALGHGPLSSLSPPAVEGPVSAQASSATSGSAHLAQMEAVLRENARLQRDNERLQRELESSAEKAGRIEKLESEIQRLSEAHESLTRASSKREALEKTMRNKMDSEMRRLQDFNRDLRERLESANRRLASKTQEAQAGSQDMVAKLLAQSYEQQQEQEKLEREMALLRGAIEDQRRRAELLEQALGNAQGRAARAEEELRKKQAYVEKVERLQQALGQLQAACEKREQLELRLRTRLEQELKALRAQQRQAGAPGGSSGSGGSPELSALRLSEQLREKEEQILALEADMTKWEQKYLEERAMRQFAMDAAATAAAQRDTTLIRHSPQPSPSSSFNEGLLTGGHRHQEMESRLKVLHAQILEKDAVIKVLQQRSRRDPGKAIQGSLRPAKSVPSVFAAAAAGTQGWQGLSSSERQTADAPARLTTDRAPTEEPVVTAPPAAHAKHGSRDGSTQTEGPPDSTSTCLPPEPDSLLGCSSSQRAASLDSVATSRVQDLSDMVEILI

Common to all, as to assay: co-IP; HUVEC, basal or treated with XAV939 (5 µM, 6 h); non-denaturing lysis buffer (20 mM Tris-HCl, 150 mM NaCl, 1 mM EDTA, 1 mM EGTA, 1% Triton X-100, pH 7.6); 500 µg protein with 1 µg primary antibody overnight at 4 °C, protein A/G magnetic beads 2 h; western blot
The target of assay [1] is Yes-associated protein 1 (human (endogenous in HUVEC)) (UniProt P46937).
Assay [2] addresses T1, vascular endothelial (VE)-cadherin (human (endogenous in HUVEC)) (UniProt P33151).
T1 sequence: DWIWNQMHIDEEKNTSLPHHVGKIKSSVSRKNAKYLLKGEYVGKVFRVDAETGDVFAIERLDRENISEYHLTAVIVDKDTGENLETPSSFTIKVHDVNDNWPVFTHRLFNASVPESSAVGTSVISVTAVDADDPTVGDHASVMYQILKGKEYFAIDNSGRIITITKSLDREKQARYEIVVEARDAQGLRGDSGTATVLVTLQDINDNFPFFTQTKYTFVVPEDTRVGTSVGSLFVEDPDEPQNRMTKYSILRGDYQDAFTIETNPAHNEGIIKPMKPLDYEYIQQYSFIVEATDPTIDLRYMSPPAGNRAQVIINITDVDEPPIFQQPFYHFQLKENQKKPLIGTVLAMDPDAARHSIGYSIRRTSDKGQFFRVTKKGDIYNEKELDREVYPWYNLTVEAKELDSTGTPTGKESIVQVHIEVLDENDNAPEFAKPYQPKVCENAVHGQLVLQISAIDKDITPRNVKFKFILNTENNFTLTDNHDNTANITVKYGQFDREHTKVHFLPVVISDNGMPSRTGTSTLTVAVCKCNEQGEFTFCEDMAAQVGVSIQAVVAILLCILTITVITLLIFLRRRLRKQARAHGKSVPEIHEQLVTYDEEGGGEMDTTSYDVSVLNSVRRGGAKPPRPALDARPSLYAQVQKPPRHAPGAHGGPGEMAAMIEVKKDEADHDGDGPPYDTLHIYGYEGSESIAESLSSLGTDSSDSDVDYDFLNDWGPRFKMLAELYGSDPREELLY

Assay [3] addresses transcriptional coactivator with PDZ-binding motif (human (endogenous in HUVEC)) (UniProt Q9GZV5).
The target in assay [4] is Yes-associated protein 1 (human (endogenous in HUVEC)) (UniProt P46937). This is another data set of the same source.
Assay [5] addresses T1, vascular endothelial (VE)-cadherin (human (endogenous in HUVEC)). This is another data set of the same source.
Assay [6] has as its target T2, vascular endothelial (VE)-cadherin (human (endogenous in HUVEC)), P33151.
T2 chain: T1 sequence
The settings on record: remark: other sources report otherwise.

Read-outs that look alike come from different tables or passages of the source. These are yes or no findings as the source states them, for the method shown. In cells and extracts the contact can be indirect. Some results given as binding are weak or reduced against the parent protein; the word gives no strength.

Take “angiomotin-like 2 (from UniProt Q9Y2J4 1-779)”: the binding entry in assay [1], in assay [2] and in assay [3] was “binds” each time.

B1: angiomotin-like 1 (protein, UniProt Q8IY63 1-956)
chain: MWRAKLRRGTCEPAVKGSPSACYSPSSPVQVLEDSTYFSPDFQLYSGRHETSALTVEATSSIREKVVEDPLCNFHSPNFLRISEVEMRGSEDAAAGTVLQRLIQEQLRYGTPTENMNLLAIQHQATGSAGPAHPTNNFSSTENLTQEDPQMVYQSARQEPQGQEHQVDNTVMEKQVRSTQPQQNNEELPTYEEAKAQSQFFRGQQQQQQQQGAVGHGYYMAGGTSQKSRTEGRPTVNRANSGQAHKDEALKELKQGHVRSLSERIMQLSLERNGAKQHLPGSGNGKGFKVGGGPSPAQPAGKVLDPRGPPPEYPFKTKQMMSPVSKTQEHGLFYGDQHPGMLHEMVKPYPAPQPVRTDVAVLRYQPPPEYGVTSRPCQLPFPSTMQQHSPMSSQTSSASGPLHSVSLPLPLPMALGAPQPPPAASPSQQLGPDAFAIVERAQQMVEILTEENRVLHQELQGYYDNADKLHKFEKELQRISEAYESLVKSTTKRESLDKAMRNKLEGEIRRLHDFNRDLRDRLETANRQLSSREYEGHEDKAAEGHYASQNKEFLKEKEKLEMELAAVRTASEDHRRHIEILDQALSNAQARVIKLEEELREKQAYVEKVEKLQQALTQLQSACEKREQMERRLRTWLERELDALRTQQKHGNGQPANMPEYNAPALLELVREKEERILALEADMTKWEQKYLEESTIRHFAMNAAATAAAERDTTIINHSRNGSYGESSLEAHIWQEEEEVVQANRRCQDMEYTIKNLHAKIIEKDAMIKVLQQRSRKDAGKTDSSSLRPARSVPSIAAATGTHSRQTSLTSSQLAEEKKEEKTWKGSIGLLLGKEHHEHASAPLLPPPPTSALSSIASTTAASSAHAKTGSKDSSTQTDKSAELFWPSMASLPSRGRLSTTPAHSPVLKHPAAKGTAEKLENSPGHGKSPDHRGRVSSLLHKPEFPDGEMMEVLI
On to B1, for which the binding entry in assay [4] and in assay [5] was “binds” in each case.

B2: β-catenin, P35222 1-781 (protein)
chain: MATQADLMELDMAMEPDRKAAVSHWQQQSYLDSGIHSGATTTAPSLSGKGNPEEEDVDTSQVLYEWEQGFSQSFTQEQVADIDGQYAMTRAQRVRAAMFPETLDEGMQIPSTQFDAAHPTNVQRLAEPSQMLKHAVVNLINYQDDAELATRAIPELTKLLNDEDQVVVNKAAVMVHQLSKKEASRHAIMRSPQMVSAIVRTMQNTNDVETARCTAGTLHNLSHHREGLLAIFKSGGIPALVKMLGSPVDSVLFYAITTLHNLLLHQEGAKMAVRLAGGLQKMVALLNKTNVKFLAITTDCLQILAYGNQESKLIILASGGPQALVNIMRTYTYEKLLWTTSRVLKVLSVCSSNKPAIVEAGGMQALGLHLTDPSQRLVQNCLWTLRNLSDAATKQEGMEGLLGTLVQLLGSDDINVVTCAAGILSNLTCNNYKNKMMVCQVGGIEALVRTVLRAGDREDITEPAICALRHLTSRHQEAEMAQNAVRLHYGLPVVVKLLHPPSHWPLIKATVGLIRNLALCPANHAPLREQGAIPRLVQLLVRAHQDTQRRTSMGGTQQQFVEGVRMEEIVEGCTGALHILARDVHNRIVIRGLNTIPLFVQLLYSPIENIQRVAAGVLCELAQDKEAAEAIEAEGATAPLTELLHSRNEGVATYAAAVLFRMSEDKPQDYKKRLSVELTSSLFRTEPMAWNETADLGLDIGAQGEPLGYRQDDPSYRSFHSGGYGQDALGMDPMMEHEMGGHHPGADYPVDGLPDLGHAQDLMDGLPPGDSNQLAWFDTDL
As to B2, the binding result in assay [6] is “binds”.
